Reference: the supplement of paper PMC10849652
The other results are listed elsewhere or left out. Residues, ends and D or L forms follow the SMILES beside them. *: point of attachment. Cbz = O=C(OCc1ccccc1)*

Sequences of proteins named here, by UniProt entry; tags and fusion partners are left off. A change or cut given only in a name is not applied to a line headed by its entry.
UniProt P01042: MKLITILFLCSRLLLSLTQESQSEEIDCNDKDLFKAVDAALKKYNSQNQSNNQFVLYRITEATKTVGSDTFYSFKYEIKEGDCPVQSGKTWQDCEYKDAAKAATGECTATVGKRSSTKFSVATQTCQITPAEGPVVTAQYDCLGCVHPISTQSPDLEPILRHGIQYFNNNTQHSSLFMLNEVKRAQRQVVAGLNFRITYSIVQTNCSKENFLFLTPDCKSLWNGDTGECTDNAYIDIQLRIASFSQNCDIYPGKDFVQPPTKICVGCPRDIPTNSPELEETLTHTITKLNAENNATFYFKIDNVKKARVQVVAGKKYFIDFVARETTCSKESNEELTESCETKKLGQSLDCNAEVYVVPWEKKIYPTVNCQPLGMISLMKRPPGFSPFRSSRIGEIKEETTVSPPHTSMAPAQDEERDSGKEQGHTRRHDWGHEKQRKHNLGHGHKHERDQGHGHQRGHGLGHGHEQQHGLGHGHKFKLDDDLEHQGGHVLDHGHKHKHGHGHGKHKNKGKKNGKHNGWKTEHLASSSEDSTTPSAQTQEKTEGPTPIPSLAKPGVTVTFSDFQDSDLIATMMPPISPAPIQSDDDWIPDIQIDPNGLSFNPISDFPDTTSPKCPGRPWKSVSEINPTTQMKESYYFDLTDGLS
UniProt P33947: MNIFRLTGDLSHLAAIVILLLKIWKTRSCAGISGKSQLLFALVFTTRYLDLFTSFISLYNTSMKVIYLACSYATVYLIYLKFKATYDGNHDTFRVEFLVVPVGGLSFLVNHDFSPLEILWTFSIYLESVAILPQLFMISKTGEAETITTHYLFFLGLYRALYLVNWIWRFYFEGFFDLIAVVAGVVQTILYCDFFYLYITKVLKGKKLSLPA
UniProt P52294, whole entry, looked up: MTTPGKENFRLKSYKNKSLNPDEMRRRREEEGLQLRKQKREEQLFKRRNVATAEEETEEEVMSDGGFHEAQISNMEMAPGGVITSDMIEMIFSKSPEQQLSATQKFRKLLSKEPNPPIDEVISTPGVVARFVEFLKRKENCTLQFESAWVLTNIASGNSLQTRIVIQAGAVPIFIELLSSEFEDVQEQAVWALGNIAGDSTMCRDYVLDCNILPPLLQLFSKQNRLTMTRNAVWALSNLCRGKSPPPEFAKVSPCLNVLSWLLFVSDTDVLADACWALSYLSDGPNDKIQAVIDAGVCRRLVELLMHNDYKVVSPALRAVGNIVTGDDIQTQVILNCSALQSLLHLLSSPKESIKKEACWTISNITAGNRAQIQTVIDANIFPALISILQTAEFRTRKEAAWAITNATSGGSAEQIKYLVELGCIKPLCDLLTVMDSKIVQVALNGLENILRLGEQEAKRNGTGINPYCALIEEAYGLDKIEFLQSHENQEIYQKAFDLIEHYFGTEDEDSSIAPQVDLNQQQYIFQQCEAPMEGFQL
UniProt O76095: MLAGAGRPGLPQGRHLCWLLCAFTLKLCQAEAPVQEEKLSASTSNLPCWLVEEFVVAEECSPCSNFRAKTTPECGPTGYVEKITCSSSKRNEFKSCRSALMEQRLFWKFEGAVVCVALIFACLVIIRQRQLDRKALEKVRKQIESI
UniProt Q8IXV7: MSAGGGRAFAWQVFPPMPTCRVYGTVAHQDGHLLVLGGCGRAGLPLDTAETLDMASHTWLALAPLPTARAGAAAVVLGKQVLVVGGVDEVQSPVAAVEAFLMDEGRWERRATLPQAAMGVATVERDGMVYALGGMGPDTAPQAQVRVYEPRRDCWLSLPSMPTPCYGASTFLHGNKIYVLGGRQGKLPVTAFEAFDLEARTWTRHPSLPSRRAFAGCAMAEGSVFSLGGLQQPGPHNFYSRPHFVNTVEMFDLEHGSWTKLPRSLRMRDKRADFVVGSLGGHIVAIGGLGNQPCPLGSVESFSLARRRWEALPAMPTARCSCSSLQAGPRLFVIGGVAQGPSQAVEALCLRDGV
UniProt Q9H0B6: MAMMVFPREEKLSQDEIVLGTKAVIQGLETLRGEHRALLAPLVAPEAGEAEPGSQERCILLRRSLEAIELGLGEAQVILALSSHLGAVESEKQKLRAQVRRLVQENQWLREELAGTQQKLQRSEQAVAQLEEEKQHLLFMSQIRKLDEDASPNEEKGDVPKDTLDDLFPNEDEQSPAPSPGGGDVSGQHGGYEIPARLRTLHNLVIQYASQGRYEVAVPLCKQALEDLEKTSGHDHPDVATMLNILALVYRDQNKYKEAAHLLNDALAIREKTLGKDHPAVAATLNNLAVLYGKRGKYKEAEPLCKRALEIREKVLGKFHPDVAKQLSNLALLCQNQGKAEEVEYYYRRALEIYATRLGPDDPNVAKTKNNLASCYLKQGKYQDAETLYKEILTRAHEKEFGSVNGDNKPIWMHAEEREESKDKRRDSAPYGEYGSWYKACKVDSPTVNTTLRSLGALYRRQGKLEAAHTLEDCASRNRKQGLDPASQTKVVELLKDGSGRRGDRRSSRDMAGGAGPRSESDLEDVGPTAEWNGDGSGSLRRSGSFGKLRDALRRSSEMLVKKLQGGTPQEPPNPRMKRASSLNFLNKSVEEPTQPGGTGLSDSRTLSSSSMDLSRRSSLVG
UniProt A8MWY0: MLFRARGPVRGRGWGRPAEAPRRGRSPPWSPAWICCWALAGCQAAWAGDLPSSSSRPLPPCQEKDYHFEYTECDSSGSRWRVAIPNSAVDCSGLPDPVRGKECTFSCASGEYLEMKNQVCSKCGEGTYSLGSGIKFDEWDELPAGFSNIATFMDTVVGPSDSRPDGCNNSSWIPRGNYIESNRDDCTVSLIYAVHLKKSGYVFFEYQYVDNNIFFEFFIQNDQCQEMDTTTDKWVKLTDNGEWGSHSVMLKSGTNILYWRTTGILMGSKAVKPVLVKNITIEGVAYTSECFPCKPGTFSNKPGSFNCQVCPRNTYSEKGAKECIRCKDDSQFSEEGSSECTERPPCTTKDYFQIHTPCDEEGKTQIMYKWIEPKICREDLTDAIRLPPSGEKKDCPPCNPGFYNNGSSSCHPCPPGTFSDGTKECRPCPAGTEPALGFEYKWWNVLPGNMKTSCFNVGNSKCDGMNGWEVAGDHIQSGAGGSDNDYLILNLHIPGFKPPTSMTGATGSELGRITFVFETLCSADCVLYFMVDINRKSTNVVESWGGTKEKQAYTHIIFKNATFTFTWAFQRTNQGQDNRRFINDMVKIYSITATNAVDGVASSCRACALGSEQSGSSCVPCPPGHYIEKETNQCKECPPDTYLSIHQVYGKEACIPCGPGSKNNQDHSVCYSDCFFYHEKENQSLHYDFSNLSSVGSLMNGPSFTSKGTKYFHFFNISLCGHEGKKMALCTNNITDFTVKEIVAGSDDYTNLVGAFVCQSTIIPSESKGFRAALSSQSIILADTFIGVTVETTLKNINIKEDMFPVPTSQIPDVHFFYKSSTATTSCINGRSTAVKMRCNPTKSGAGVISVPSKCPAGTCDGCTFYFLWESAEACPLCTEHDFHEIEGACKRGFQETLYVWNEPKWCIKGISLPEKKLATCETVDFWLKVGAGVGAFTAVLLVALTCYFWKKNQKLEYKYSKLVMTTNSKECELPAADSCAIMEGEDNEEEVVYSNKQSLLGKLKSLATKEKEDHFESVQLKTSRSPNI
UniProt O95251, whole entry, looked up: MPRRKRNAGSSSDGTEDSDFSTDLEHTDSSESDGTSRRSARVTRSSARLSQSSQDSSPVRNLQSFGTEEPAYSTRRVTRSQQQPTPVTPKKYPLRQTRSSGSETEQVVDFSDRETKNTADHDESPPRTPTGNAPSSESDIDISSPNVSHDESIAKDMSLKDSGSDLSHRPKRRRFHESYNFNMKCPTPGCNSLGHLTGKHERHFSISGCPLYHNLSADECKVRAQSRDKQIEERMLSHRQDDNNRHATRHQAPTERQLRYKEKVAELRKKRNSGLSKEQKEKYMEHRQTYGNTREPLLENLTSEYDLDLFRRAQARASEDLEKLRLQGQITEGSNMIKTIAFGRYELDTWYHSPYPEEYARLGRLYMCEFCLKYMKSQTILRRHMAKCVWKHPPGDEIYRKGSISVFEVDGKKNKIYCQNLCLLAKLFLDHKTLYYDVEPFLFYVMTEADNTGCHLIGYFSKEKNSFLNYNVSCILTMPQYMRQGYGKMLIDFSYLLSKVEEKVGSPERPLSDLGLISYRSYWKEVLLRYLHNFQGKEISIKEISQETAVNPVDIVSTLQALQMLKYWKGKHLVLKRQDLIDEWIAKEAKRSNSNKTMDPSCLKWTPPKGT
UniProt Q14145, whole entry, looked up: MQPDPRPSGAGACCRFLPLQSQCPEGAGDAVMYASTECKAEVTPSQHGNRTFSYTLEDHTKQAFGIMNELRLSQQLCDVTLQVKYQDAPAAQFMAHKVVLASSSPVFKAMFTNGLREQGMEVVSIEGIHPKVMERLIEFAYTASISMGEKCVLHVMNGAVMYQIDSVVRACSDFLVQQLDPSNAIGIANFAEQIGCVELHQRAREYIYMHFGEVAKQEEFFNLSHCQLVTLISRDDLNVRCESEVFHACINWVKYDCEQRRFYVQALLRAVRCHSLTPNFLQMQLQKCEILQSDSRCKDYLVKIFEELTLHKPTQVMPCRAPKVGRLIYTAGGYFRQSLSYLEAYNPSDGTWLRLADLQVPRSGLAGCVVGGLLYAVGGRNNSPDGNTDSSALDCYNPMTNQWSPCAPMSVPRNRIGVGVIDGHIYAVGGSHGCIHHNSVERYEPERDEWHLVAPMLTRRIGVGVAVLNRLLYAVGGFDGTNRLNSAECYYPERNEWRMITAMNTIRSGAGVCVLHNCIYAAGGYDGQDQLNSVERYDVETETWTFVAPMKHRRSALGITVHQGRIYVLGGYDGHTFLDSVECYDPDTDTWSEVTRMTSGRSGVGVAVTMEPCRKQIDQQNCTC
UniProt Q7Z4S6: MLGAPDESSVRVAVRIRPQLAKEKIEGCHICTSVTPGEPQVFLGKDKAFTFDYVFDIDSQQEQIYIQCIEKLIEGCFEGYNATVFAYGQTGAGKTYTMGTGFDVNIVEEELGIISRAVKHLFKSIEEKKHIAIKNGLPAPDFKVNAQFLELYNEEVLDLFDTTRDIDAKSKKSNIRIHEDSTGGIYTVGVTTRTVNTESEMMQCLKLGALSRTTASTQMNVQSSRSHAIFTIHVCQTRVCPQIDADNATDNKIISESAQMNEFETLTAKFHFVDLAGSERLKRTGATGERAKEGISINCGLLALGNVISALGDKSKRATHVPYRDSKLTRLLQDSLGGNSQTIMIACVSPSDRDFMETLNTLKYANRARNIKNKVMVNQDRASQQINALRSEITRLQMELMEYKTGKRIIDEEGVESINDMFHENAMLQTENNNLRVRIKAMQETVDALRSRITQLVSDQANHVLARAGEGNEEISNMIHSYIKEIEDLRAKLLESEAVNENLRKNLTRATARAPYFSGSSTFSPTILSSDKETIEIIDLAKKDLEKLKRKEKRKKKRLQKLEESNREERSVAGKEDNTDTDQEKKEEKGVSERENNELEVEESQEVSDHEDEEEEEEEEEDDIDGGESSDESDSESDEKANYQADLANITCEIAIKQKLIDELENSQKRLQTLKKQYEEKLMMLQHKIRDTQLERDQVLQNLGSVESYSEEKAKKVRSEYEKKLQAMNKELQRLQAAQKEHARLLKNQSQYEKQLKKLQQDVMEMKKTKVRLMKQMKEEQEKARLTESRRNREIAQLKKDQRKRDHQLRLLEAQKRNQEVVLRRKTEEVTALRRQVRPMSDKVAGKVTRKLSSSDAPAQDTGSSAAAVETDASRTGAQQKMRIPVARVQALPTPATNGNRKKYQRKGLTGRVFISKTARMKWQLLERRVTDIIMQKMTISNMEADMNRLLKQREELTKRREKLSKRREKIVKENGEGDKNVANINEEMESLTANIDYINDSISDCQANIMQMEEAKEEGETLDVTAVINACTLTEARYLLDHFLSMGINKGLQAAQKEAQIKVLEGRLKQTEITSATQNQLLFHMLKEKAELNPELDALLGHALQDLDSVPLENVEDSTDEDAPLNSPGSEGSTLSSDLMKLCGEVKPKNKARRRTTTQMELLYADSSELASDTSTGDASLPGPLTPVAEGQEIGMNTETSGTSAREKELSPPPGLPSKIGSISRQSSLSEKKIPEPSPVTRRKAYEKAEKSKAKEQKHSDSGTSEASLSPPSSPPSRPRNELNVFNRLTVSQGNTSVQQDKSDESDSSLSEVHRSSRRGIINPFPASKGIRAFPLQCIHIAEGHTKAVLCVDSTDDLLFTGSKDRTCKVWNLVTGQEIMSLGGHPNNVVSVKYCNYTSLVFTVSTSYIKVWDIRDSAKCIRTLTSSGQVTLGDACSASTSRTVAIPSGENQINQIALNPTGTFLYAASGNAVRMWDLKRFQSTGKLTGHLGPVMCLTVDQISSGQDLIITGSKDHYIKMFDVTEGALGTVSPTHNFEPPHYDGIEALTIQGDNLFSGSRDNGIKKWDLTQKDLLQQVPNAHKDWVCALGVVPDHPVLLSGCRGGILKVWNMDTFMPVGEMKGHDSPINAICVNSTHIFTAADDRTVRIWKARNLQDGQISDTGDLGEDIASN

How the values were obtained:
Assay in all cases: log2 fold change, soluble protein after heating vs DMSO (PISA); higher = thermal stabilisation; K562 cells, 10 uM, 30 min; active = over 0.2 and 3.5 SD of the protein, either way, in both replicates (recomputed)
erlotinib = compound: C#Cc1cccc(Nc2ncnc3cc(OCCOC)c(OCCOC)cc23)c1 [erlotinib]
How it was run: (§1)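 Soluble protein was quantified by TMTpro 16plex LC-MS/MS after channel sums were equalised. It was obtained as the supernatant after 21,000xg for 90 min from pooled aliquots of K562 cells (2×10^6 cells/mL, 10 μM compound, 30 min) heated for 3 min across 48°C-58°C and extracted in PBS with 0.5% NP-40 at 4°C. Thermal stability values are relative to control samples and come from duplicates. They are given as log2 fold changes.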

[1] = compound: C/C(=N\NC(=O)C1=CC(=CC=C1)S(=O)(=O)N2CCOCC2)/C3=C(C=CC(=C3)Cl)O
How it was run: as §1

[2] = compound: C1=CC(=C(C=C1Cl)C2=NC3=NC=CN=C3C(=N2)NC4=CC=NC=C4)F
How it was run: as §1

[3] = compound: C1=CC(=CC=C1C2=NC3=C(N2)C=C(C=C3)C(=O)N)OC4=CC=C(C=C4)Cl
How it was run: as §1

[4] = compound: C1=CC2=C(C=CC(=C2)/C=C\3/C(=O)NC(=NCC4=CC=CS4)S3)N=C1
How it was run: as §1

[5] = compound: C1=CC2=NC=CN=C2C=C1/C=C/3\C(=O)NC(=O)S3
How it was run: as §1

[6] = compound: C1=CC=C(C=C1)C2=NC(=C(N2)C3=CC=NC=C3)C4=CC(=C(C=C4)Cl)O
How it was run: as §1

[7] = compound: C1=CC=C2C(=C1)C3=NNC4=CC=CC(=C43)C2=O
How it was run: as §1

[8] = compound: C1CCN(C1)C(=O)NC2=CC=CC(=C2)NC3=NC=C(C(=N3)NCCC4=CN=CN4)Br
How it was run: as §1

[9] = compound: C1CN(CCC1(CC2=CC=C(C=C2)Cl)N)C3=NC=NC4=C3C=CN4
How it was run: as §1

IRAK-1-4 Inhibitor I = compound: C1COCCN1CCN2C3=CC=CC=C3N=C2NC(=O)C4=CC(=CC=C4)[N+](=O)[O-] [IRAK-1-4 Inhibitor I]
How it was run: as §1

ibrutinib = compound: C=CC(=O)N1CCC[C@@H](n2nc(-c3ccc(Oc4ccccc4)cc3)c3c(N)ncnc32)C1 [ibrutinib]
How it was run: as §1

[10] = compound: CC(=O)c1cnc2ccc(-c3cc(Cl)c(O)c(Cl)c3)nc2c1N[C@H]1CC[C@H](CN(C)C)CC1
How it was run: as §1

ralimetinib = compound: CC(C)(C)Cn1c(N)nc2ccc(-c3[nH]c(C(C)(C)C)nc3-c3ccc(F)cc3)nc21 [ralimetinib]
How it was run: as §1

[11] = compound: CC(C)(O)CC(=O)NCCn1ccc2ncnc(Nc3ccc(Oc4cccc(C(F)(F)F)c4)c(Cl)c3)c21
How it was run: as §1

[12] = compound: CC(C)C1=C2N=C(C=C(N2N=C1)NCC3=CC=CC=C3)NCCCCCCN
How it was run: as §1

[13] = compound: CC(C)C[C@@H](C=O)NC(=O)[C@H](CC(C)C)NC(=O)[C@H](CC(C)C)NC(=O)OCc1ccccc1
How it was run: as §1

pinometostat = compound: CC(C)N(C[C@H]1O[C@@H](n2cnc3c(N)ncnc32)[C@H](O)[C@@H]1O)[C@H]1C[C@@H](CCc2nc3cc(C(C)(C)C)ccc3[nH]2)C1 [pinometostat]
How it was run: as §1

[14] = compound: CC1=C(C(CC(=O)N1)C2=CC=C(C=C2)C(F)(F)F)C(=O)NC3=C(C=C4C(=C3)C=NN4)F
How it was run: as §1

[15] = compound: CC1=C(C2=C(C=C1)C(=O)C3=CC=CC=C3N2CCCN)C
How it was run: as §1

Target	log2 fold change (erlotinib)	log2 fold change [1]	log2 fold change [2]	log2 fold change [3]	log2 fold change [4]	log2 fold change [5]	log2 fold change [6]	log2 fold change [7]	log2 fold change [8]	log2 fold change [9]	log2 fold change (IRAK-1-4 Inhibitor I)	log2 fold change (ibrutinib)	log2 fold change [10]	log2 fold change (ralimetinib)	log2 fold change [11]	log2 fold change [12]	log2 fold change [13]	log2 fold change (pinometostat)	log2 fold change [14]	log2 fold change [15]
KARS1 (UniProt Q15046)	inactive: -0.048	inactive: -0.054	inactive: -0.272	inactive: 0.053	inactive: -0.016	inactive: 0.05	inactive: -0.069	inactive: -0.026	inactive: 0.03	inactive: -0.042	inactive: -0.025	inactive: 0.032	inactive: 0.104	inactive: 0.113	inactive: 0.085	inactive: -0.002	inactive: 0.077	inactive: 0.232	inactive: 0.01	inactive: -0.028
KIF13B (UniProt Q9NQT8)	inactive: -0.031	inactive: 0.016	inactive: -0.033	inactive: 0.06	inactive: 0.095	inactive: -0.037		inactive: 0.086	inactive: 0.077	inactive: 0.021	inactive: -0.006	inactive: 0.051	inactive: -0.013		inactive: -0.086	inactive: -0.113		inactive: 0.089		inactive: 0.03
KLF16 (UniProt Q9BXK1)	inactive: 0.022	inactive: -0.096		inactive: 0.014	inactive: -0.224	inactive: 0.031		inactive: -0.046	inactive: 0.034	inactive: 0.031	inactive: -0.064	inactive: -0.124	inactive: 0.037			inactive: -0.02		inactive: 0.184	inactive: 0.184	inactive: -0.275
KNG1 (UniProt P01042)	inactive: -0.081	inactive: -0.121		inactive: 0.101	inactive: 0.07	inactive: -0.054	inactive: -0.136	inactive: -0.073	inactive: 0.023	inactive: 0.19	inactive: 0.099	inactive: 0.254	inactive: 0.109	inactive: -0.096		inactive: 0.201	inactive: 0.06	inactive: -0.129	inactive: -0.052	inactive: -0.139
KDELR2 (UniProt P33947)	inactive: -0.06	inactive: -0.052	inactive: 0.048	inactive: -0.02	inactive: 0.042	inactive: 0.024	inactive: 0.201	inactive: 0.048	inactive: -0.102	inactive: 0.019	inactive: -0.007	inactive: 0.03	inactive: -0.14	inactive: 0.127	inactive: -0.035	inactive: -0.047	active: -0.568	inactive: -0.008		inactive: 0.103
KPNA1 (UniProt P52294)	inactive: -0.042	inactive: 0.09	inactive: -0.053	inactive: -0.037	inactive: -0.011	inactive: 0.009	inactive: 0.035	inactive: -0.061	inactive: -0.032	inactive: -0.07	inactive: -0.046	inactive: -0.073	inactive: 0.062	inactive: 0.089	inactive: -0.022	inactive: 0.084	inactive: 0.123	inactive: 0.071		active: -0.26
KIFBP (UniProt Q96EK5)	inactive: -0.034	inactive: 0.147	inactive: 0	inactive: 0.017	inactive: 0.074	inactive: -0.015	inactive: -0.008	inactive: 0.03	inactive: 0.014	inactive: -0.058	inactive: -0.019	inactive: 0.011	inactive: -0.033	inactive: -0.02	inactive: -0.045	inactive: -0.172	inactive: 0.2	inactive: 0.019		inactive: 0.054
JTB (UniProt O76095)	inactive: 0.049	inactive: -0.124	inactive: 0.111	inactive: -0.029	inactive: -0.117	inactive: -0.001		inactive: 0.267	inactive: 0.106	inactive: 0.044	inactive: -0.311	inactive: -0.046	inactive: 0		inactive: -0.047	inactive: 0.067		inactive: 0.031	inactive: -0.061	inactive: 0.015
JMJD6 isoform 3 (UniProt Q6NYC1)	inactive: -0.009	inactive: 0.011	inactive: 0.039	inactive: 0.044	inactive: 0.051	inactive: 0.03	inactive: 0.107	inactive: -0.037	inactive: -0.007	inactive: 0.181	inactive: -0.02	inactive: -0.011	inactive: -0.049	inactive: -0.065	inactive: 0.019	inactive: -0.041	inactive: 0.004	inactive: -0.016		inactive: 0.102
KLHL18 (UniProt O94889)	inactive: -0.011	inactive: 0	inactive: 0.12	inactive: 0.022	inactive: 0.031	inactive: -0.02	inactive: -0.042	inactive: -0.085	inactive: -0.042	inactive: -0.026		inactive: 0.082	inactive: 0.104	inactive: 0.055	inactive: 0.006	inactive: -0.117	inactive: -0.111			inactive: 0.088
KLHDC8B (UniProt Q8IXV7)	inactive: -0.221	inactive: 0.05		inactive: 0.172	inactive: -0.079	inactive: 0.247	inactive: -0.243	inactive: 0.102	inactive: 0.088	inactive: -0.085	inactive: -0.016	inactive: -0.361	inactive: -0.001	inactive: -0.032		inactive: 0.088	inactive: -0.088	inactive: 0.091		inactive: -0.056
KLC2 (UniProt Q9H0B6)	inactive: 0.036	inactive: 0.063	inactive: 0.008	inactive: -0.044	inactive: 0.078	inactive: 0.025	inactive: -0.039	inactive: 0.006	inactive: -0.063	inactive: -0.007	inactive: -0.035	inactive: -0.024	active: -0.309	inactive: 0.041	inactive: -0.02	inactive: -0.107	inactive: 0.083	inactive: 0.023		inactive: 0.133
KIAA1324L (UniProt A8MWY0)	inactive: 0.036	inactive: -0.077	inactive: 0.003	inactive: 0.05	inactive: 0.092	inactive: -0.068	inactive: 0.003	inactive: -0.042	inactive: -0.03	inactive: 0.064	inactive: 0.027	inactive: -0.056	inactive: -0.052	inactive: -0.024	inactive: -0.038	inactive: 0.024	inactive: 0	inactive: -0.008		inactive: -0.037
KPNA4 (UniProt O00629)	inactive: 0.016	inactive: 0.023	inactive: 0.037	inactive: 0.023	inactive: 0.005	inactive: 0.03	inactive: 0.027	inactive: -0.024	inactive: 0.003	inactive: 0.003	inactive: 0.008	inactive: -0.016	inactive: -0.057	inactive: -0.048	inactive: 0.028	inactive: -0.063	inactive: -0.02	inactive: -0.001		active: -0.347
KAT7 (UniProt O95251)	inactive: 0.284	inactive: 0		inactive: -0.152	inactive: -0.225	inactive: 0	inactive: 0.225	inactive: 0.231			inactive: 0.059	inactive: 0.006	inactive: -0.369	inactive: 0.217		inactive: 0.1	inactive: 0.03	inactive: -0.095	inactive: -0.102	
KEAP1 (UniProt Q14145)	inactive: -0.015	inactive: -0.031	inactive: 0.025	inactive: -0.021	inactive: 0.025	inactive: 0.159	inactive: -0.098	inactive: 0.023	inactive: -0.045	inactive: -0.034	inactive: 0.008	inactive: -0.085	inactive: 0.022	inactive: 0.074	inactive: -0.07	active: -0.233	inactive: 0.023	inactive: 0.109		inactive: 0.028
KIF3B (UniProt O15066)	inactive: -0.015	inactive: 0.016	inactive: -0.015	inactive: -0.108	inactive: -0.02	inactive: 0.004	inactive: -0.029	inactive: 0.077	inactive: -0.101	inactive: -0.039	inactive: 0.06	inactive: -0.029	inactive: 0.016	inactive: -0.048	inactive: 0.018	inactive: -0.021	inactive: 0.068	inactive: 0.033		inactive: -0.008
KIF21A isoform 4 (UniProt Q7Z4S6)	inactive: 0.017	inactive: 0.056	inactive: -0.043	inactive: -0.016	inactive: -0.023	inactive: 0.006	inactive: -0.075	inactive: -0.065	inactive: -0.144	inactive: -0.233	inactive: -0.025	inactive: -0.053	inactive: -0.054	inactive: 0.035	inactive: -0.062	inactive: -0.009	inactive: 0.084	inactive: 0.144		inactive: 0.096

Two entries drawn at random from those above, as already listed:
Target	log2 fold change (erlotinib)	log2 fold change [1]	log2 fold change [2]	log2 fold change [3]	log2 fold change [4]	log2 fold change [5]	log2 fold change [6]	log2 fold change [7]	log2 fold change [8]	log2 fold change [9]	log2 fold change (IRAK-1-4 Inhibitor I)	log2 fold change (ibrutinib)	log2 fold change [10]	log2 fold change (ralimetinib)	log2 fold change [11]	log2 fold change [12]	log2 fold change [13]	log2 fold change (pinometostat)	log2 fold change [14]	log2 fold change [15]
KDELR2 (UniProt P33947)	inactive: -0.06	inactive: -0.052	inactive: 0.048	inactive: -0.02	inactive: 0.042	inactive: 0.024	inactive: 0.201	inactive: 0.048	inactive: -0.102	inactive: 0.019	inactive: -0.007	inactive: 0.03	inactive: -0.14	inactive: 0.127	inactive: -0.035	inactive: -0.047	active: -0.568	inactive: -0.008		inactive: 0.103
KARS1 (UniProt Q15046)	inactive: -0.048	inactive: -0.054	inactive: -0.272	inactive: 0.053	inactive: -0.016	inactive: 0.05	inactive: -0.069	inactive: -0.026	inactive: 0.03	inactive: -0.042	inactive: -0.025	inactive: 0.032	inactive: 0.104	inactive: 0.113	inactive: 0.085	inactive: -0.002	inactive: 0.077	inactive: 0.232	inactive: 0.01	inactive: -0.028
